Source: PubChem BioAssay AID743255 (National Center for Advancing Translational Sciences (NCATS), 2014)
The whole screen tested about 390,000 compounds, of which about 910 (0.23%) were called active. The shares of active, inactive and inconclusive entries below differ from those in the screen. Calls come from the whole dose curve; as a rule, active = well fitted inhibition curve with a large enough effect; inconclusive = small, poorly fitted or top-dose-only effect; inactive = no such curve, though single readings can be large or run the other way. Potencies of inconclusive entries are doubtful fits and often do not repeat.

Amino acid sequences for entries named in this document (tags omitted). A change or cut given only in a name is not applied to a line headed by its entry.
UniProt O94782: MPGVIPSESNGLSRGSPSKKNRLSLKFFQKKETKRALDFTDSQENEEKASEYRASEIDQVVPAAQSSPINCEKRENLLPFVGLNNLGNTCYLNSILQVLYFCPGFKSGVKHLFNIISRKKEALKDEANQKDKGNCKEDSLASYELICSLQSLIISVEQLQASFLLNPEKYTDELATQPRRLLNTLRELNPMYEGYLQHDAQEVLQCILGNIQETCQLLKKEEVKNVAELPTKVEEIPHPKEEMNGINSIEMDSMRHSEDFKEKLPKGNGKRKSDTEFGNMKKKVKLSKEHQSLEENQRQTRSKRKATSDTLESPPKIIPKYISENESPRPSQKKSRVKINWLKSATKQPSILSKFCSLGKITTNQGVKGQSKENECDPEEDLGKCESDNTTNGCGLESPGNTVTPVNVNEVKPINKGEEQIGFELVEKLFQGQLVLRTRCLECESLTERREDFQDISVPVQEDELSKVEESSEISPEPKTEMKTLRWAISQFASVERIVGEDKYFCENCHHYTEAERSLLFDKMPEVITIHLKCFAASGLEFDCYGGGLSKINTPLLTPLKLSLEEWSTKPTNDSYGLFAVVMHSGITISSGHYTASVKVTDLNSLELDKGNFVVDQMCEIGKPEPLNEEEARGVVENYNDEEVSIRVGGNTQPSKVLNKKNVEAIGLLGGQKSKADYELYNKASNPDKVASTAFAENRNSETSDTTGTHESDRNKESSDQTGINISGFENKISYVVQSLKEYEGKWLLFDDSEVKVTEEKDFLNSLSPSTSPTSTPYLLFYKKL

target: Ubiquitin carboxyl-terminal hydrolase 1 (Homo sapiens) (UniProt O94782); test: Inhibitors of USP1/UAF1: Primary Screen; conditions: recombinant USP1/UAF1, Ub-Rhodamine cleavage fluorescence; activity change, negative = inhibition: at 57.1 µM (top of the series); note: nearly all actives have a fitted effect of over 60% in size
How it was run: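 In this screen, compounds sit with the deubiquitinase complex (1nM) for 15 min at room temperature before Ub-Rho is added at 150nM final. Fluorescence rise is then followed for 6 reads every 60 seconds.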
% is set by controls: 0 for no effect and ±100 for the full control effect; potency is the fitted concentration of half-maximal effect.

Row | SMILES | Potency | activity change, negative = inhibition
1 | Cc1cc(N2CCCC2)nc2c(C)cccc12 | inconclusive: 50.1 µM [inhibitor, partial curve, poor fit] | –
2 | CCN(CC)c1ccc(C(=O)NCc2ccc3c(c2)CCN3C(=O)c2ccc(F)cc2)cc1 | inconclusive: 39.8 µM [inhibitor, partial curve, poor fit] | –
3 | Cc1cc(OCC(O)CN2CCN(c3cccc(Cl)c3)CC2)ccc1Cl (centres undefined) | – | inactive: -30.5%
4 | Cc1cc(/C=N\NC(=O)COc2cccc3cccnc23)c(C)n1-c1ccccc1 | – | inactive: -22.1%
5 | Cn1c(Nc2ccc(Cl)cc2)cc(=O)n(C)c1=O | inconclusive: 0.398 µM [inhibitor, full curve] | –
6 | Cc1cc(N2C(=O)C(O)=C(C(=O)c3cc4ccccc4o3)C2c2ccc(Br)cc2)no1 (centres undefined) | – | inactive: -13.4%
7 | CC(NC(=S)Nc1cccc(C(F)(F)F)c1)C(C)(C)C (centres undefined) | – | inactive: -7.63%
8 | COc1ccc(-c2nc(Cn3c(SCc4cccc(C(F)(F)F)c4)nc4cccnc43)c(C)o2)cc1OC | inconclusive: 35.5 µM [inhibitor, single point] | –
9 | CC(C)C[C@H](NC(=O)c1nc[nH]c1C(=O)NCC(=O)OC(C)(C)C)C(=O)OC(C)(C)C | inconclusive: 11.2 µM [inhibitor, full curve, poor fit] | –
10 | O=C(CSc1nc2ccccc2n1Cc1ccccc1)N/N=C/c1ccccc1C(=O)O | inconclusive: 39.8 µM [inhibitor, partial curve, poor fit] | –
11 | CC(C)OC(=O)c1ccc(NC(=S)NC(=O)c2cncc(Br)c2)cc1 | inconclusive: 63.1 µM [inhibitor, single point] | –
12 | Cc1cccc(Cn2cc(C(=O)Nc3cc(F)ccc3F)ccc2=O)c1 | inconclusive: 0.282 µM [inhibitor, full curve, poor fit] | –
13 | CC(OC(=O)Cn1cc(C(F)(F)F)ccc1=O)C(=O)N(C)c1ccccc1 (centres undefined) | inconclusive: 8.91 µM [inhibitor, partial curve, poor fit] | –
14 | COc1ccc(N2C(=O)Cc3cc(OC)c(OC)cc3C2c2ccc(F)cc2)cc1 (centres undefined) | inconclusive: 11.2 µM [inhibitor, partial curve] | –
15 | COCCCN1C(=O)C(CC(=O)NCCc2ccccn2)CC(C(=O)N2CCOCC2)=C1C (centres undefined) | inconclusive: 11.2 µM [inhibitor, partial curve] | –
16 | CC(=O)c1c(C)[nH]c(C(=O)OC(C)C(=O)Nc2ccc(C)c(S(=O)(=O)N3CCOCC3)c2)c1C (centres undefined) | – | inactive: -12.6%
17 | O=C(O)c1cccc(NC2=C(Cl)C(=O)c3ccccc3C2=O)c1 | inconclusive: 28.2 µM [inhibitor, partial curve] | –
18 | CC(=O)c1ccc(NC(=O)c2nc(-c3ccccc3)n(-c3ccccc3)n2)cc1 | inconclusive: 44.7 µM [inhibitor, partial curve, poor fit] | –
19 | NC(=S)N=Nc1c(O)n(CC(=O)Nc2ccccc2)c2ccccc12 | – | inactive: -10.7%
20 | Cc1cccc(Oc2nc3ccccn3c(=O)c2/C=C(\C#N)C(=O)NC2CCS(=O)(=O)C2)c1 (centres undefined) | – | inactive: -4.52%
21 | Cc1nc(C(=O)NNC(=O)c2ccc(Cl)cc2)c(C(F)(F)F)o1 | inconclusive: 35.5 µM [inhibitor, single point] | –
22 | Nc1ccc(N2CCCCC2)cc1N1CCCCC1 | – | inactive: -12%

Row | SMILES | Potency | activity change, negative = inhibition
23 | O=C(CS(=O)(=O)Cc1ccccc1)N1CCc2ccccc2C1 | inconclusive: 28.2 µM [inhibitor, partial curve] | –
24 | Cn1c(=O)c(=O)n(C)c2cc(N3CCOCC3)c(NS(=O)(=O)c3ccc(Br)cc3)cc21 | – | inactive: -11.8%
25 | CC(C)c1cccc(-c2ccc3c(c2)S(=O)(=O)c2cccc(C(=O)O)c2C3=O)c1 | inconclusive: 50.1 µM [inhibitor, partial curve, poor fit] | –
26 | O=C(CN1CCN(C(=O)c2ccccc2)CC1)Nc1ccccc1 | inconclusive: 63.1 µM [inhibitor, partial curve, poor fit] | –
27 | COc1ccccc1OCc1nc(C#N)c(NCc2ccc(C)cc2)o1 | – | inactive: -29.1%
28 | COc1ccc(NCc2cc3cc4c(cc3n(CC(=O)Nc3ccc(C)c(C)c3)c2=O)OCO4)cc1 | inconclusive: 15.8 µM [inhibitor, partial curve, poor fit] | –
29 | COc1ccc(OC)c(C2CC(=O)NC(SC)=C2C#N)c1 (centres undefined) | – | inactive: -27.2%
30 | Nc1nnc(SC2CCCC2)s1 | – | inactive: -17.8%
31 | COc1ccc(S(=O)(=O)N(CC(=O)Nc2cc(Cl)ccc2C)Cc2ccccc2)cc1OC | inconclusive: 0.708 µM [inhibitor, full curve, poor fit] | –
32 | CCOC(=O)c1cc(-c2ccc(F)cc2)n(CCC(=O)Nc2nc3ccc(OC)cc3s2)c1C | inconclusive: 35.5 µM [inhibitor, partial curve] | –
33 | CCOC(=O)CC(NC(=O)CCc1c(C)nc2c(c1C)c(=O)n(C)c(=O)n2C)c1ccc(OCC)c(OC)c1 (centres undefined) | inconclusive: 3.16 µM [inhibitor, full curve, poor fit] | –
34 | CC(=O)c1ccc(NC(=O)c2ccc(-n3cnnc3)cc2)cc1 | inconclusive: 0.562 µM [inhibitor, full curve, poor fit] | –
35 | O=C(O)c1ccccc1CC(CCc1ccccc1)C(=O)O (centres undefined) | – | inactive: 7.23%
36 | Oc1ccc(C[C@H]2CNCCN2CCc2cccc(F)c2)cc1 | inconclusive: 44.7 µM [inhibitor, partial curve, poor fit] | –
37 | NCCCC[C@H]1CNC(=O)C(=O)N1CCc1cc(C(F)(F)F)cc(C(F)(F)F)c1 | inconclusive: 0.251 µM [inhibitor, full curve, poor fit] | –
38 | C=CC[C@H](CC(=O)N(CCO)Cc1ccccc1)C(=O)N[C@H](COC(=O)[C@@H](CC=C)CC(=O)OC(C)(C)C)c1ccccc1 | inconclusive: 3.55 µM [inhibitor, full curve, poor fit] | –
39 | OCCCn1c(CCNc2nc(-c3ccc(F)cc3)cs2)nc2cc(C(F)(F)F)ccc21 | inconclusive: 0.355 µM [inhibitor, full curve] | –
40 | CCOC(=O)C1Oc2ccccc2C(c2ccoc2)=C1C(=O)OC (centres undefined) | inconclusive: 10 µM [inhibitor, partial curve, poor fit] | –
41 | Cc1ccc(CSCCC(=O)NCc2ccc(F)cc2Cl)cc1 | inconclusive: 31.6 µM [inhibitor, single point] | –
42 | Cc1cc(/C=C2\SC(=S)N(C)C2=O)c(C)n1-c1ccc(O)cc1 | inconclusive: 10 µM [inhibitor, full curve] | –
43 | CCn1nc(C)cc1C(=O)N1CCCC(C(=O)c2ccc(OC)cc2C)C1 (centres undefined) | inconclusive: 4.47 µM [inhibitor, full curve, poor fit] | –
44 | CN(Cc1ccccc1)c1ncnc2c1nnn2C | inconclusive: 12.6 µM [inhibitor, partial curve] | –

Row | SMILES | Potency | activity change, negative = inhibition
45 | CC1(C)CC(=O)C(N=Nc2cc(S(=O)(=O)N3CCOCC3)ccc2Cl)=C(O)C1 | inconclusive: 0.316 µM [inhibitor, full curve] | –
46 | NS(=O)(=O)c1cccc(NC(=S)NC(=O)C23CC4CC(CC(C4)C2)C3)c1 | – | inactive: -16.7%
47 | COc1ccc(C2=C(Nc3ccc(Br)c(C)c3)c3ccccc3C2=O)cc1 | inconclusive: 5.01 µM [inhibitor, full curve] | –
48 | CC(=O)Nc1sc2c(c1C#N)CCC(C)C2 (centres undefined) | inconclusive: 6.31 µM [inhibitor, partial curve] | –
49 | CC(=O)Nc1sc2c(c1C(c1ccccc1Cl)N1CCN(CCO)CC1)CCCC2 (centres undefined) | inconclusive: 0.355 µM [inhibitor, full curve, poor fit] | –
50 | COc1ccc(C(C)=O)cc1COC(=O)CNC(=O)C1CCCCC1 | inconclusive: 50.1 µM [inhibitor, partial curve, poor fit] | –
51 | O[C@@H]1CN(CC2CCCCC2)[C@@H](c2ccccc2)C[C@H]1n1cc(C2CC2)nn1 | inconclusive: 0.891 µM [inhibitor, full curve] | –
52 | Cc1ccc(C(=O)NCCN2C3=NC[C@H](Cc4ccc(O)cc4)N3C[C@H]2Cc2ccc(O)cc2)cc1Br | inconclusive: 35.5 µM [inhibitor, partial curve] | –
53 | O=C(NCc1ccccc1)c1nc(S(=O)(=O)Cc2ccc(F)cc2)ncc1Cl | inconclusive: 28.2 µM [inhibitor, single point] | –
54 | CCOC(=O)c1ccc(NC(=O)c2ccc(NC(=O)c3ccccc3)cc2)cc1 | – | inactive: -19.1%
55 | Cc1cccc(-n2c(CCc3ccccc3)nnc2SCC(=O)c2ccccc2)c1 | – | inactive: -25.3%
56 | COc1ccc(S(=O)(=O)c2cnc3cc(OC)c(OC)cc3c2N2CCCC(C)C2)cc1 (centres undefined) | inconclusive: 39.8 µM [inhibitor, partial curve, poor fit] | –
57 | CCCNc1nc2ccccc2n2c(C)nnc12 | inconclusive: 0.891 µM [inhibitor, full curve] | –
58 | CC1CCN(CC2CCN(C(=O)NCc3ccc(F)cc3)CC2)CC1 | inconclusive: 12.6 µM [inhibitor, partial curve, poor fit] | –
59 | CCc1c(C)sc(NC(=O)c2cccs2)c1C(=O)OC(C)C | inconclusive: 44.7 µM [inhibitor, partial curve, poor fit] | –
60 | CCOc1ccc(NC2SC(=O)N(Cc3ccccc3)C2=O)cc1 (centres undefined) | inconclusive: 79.4 µM [inhibitor, partial curve, poor fit] | –
61 | COc1cccc(-c2cc(C(=O)Nn3cnnc3)c3ccccc3n2)c1 | inconclusive: 39.8 µM [inhibitor, single point] | –
62 | OC(C#CCN1CCOCC1)c1cccs1 (centres undefined) | – | inactive: -14.7%
63 | CC1=C(c2ccc(C(C)C)cc2)S(=O)(=O)N=C1N1CCC(C(=O)NCc2ccccc2)CC1 | inconclusive: 6.31 µM [inhibitor, single point] | –
64 | Cc1ccc(/C(O)=C2\C(=O)C(=O)N(C)C2c2ccccc2)cc1 (centres undefined) | inconclusive: 0.126 µM [inhibitor, full curve, poor fit] | –

Filtered by structure: the entries above containing an NH in an aromatic ring (2)
Row | SMILES | Potency | activity change, negative = inhibition
9 | CC(C)C[C@H](NC(=O)c1nc[nH]c1C(=O)NCC(=O)OC(C)(C)C)C(=O)OC(C)(C)C | inconclusive: 11.2 µM [inhibitor, full curve, poor fit] | –
16 | CC(=O)c1c(C)[nH]c(C(=O)OC(C)C(=O)Nc2ccc(C)c(S(=O)(=O)N3CCOCC3)c2)c1C (centres undefined) | – | inactive: -12.6%
